Some entries share one result that the patent states for a list of compounds.
Assay: Thermo-rheometer viscosity of WITC (PCL), unplasticized or blended with plasticizing agents / premixes
Format: physicochemical
Conditions: 1:1 weight ratio, measured at 50° C.
Procedure: Thermo-rheometer: Thermo Scientific (Germany) Haake Mars III, with a C20/1° spindle, a gap of 0.052 mm, and a shear rate of 10 sec^−1. […]
Samples corresponding to the above-described premixes were additionally tested for their viscosity at the end of the mixing step, when the WITCs were at least homogeneously blended with the polar-carrier-insoluble materials, and in most case plasticized by the non-volatile liquids if present. Viscosity was determined as previously described at a shear rate of 10 sec^−1 over a range of temperatures between 20° C. and 80° C., and for all samples so tested the viscosity as measured at 50° C. was typically found to be of less than 10^6 mPa·s, being generally between 10^3 mPa·s and 10^5 mPa·s, often not exceeding 5×10^4 mPa·s, and many samples even having a viscosity of less 10^4 mPa·s.
In a first series of experiments, the viscosity was measured on blends of materials forming a homogeneous mass adapted for nano-sizing by the present methods. PCL and a non-volatile liquid or a fatty amine serving as SFA at various weight per weight ratios were combined in a glass vial and the sealed vials were placed in an oven pre-heated to 80° C. […]
Solid samples were then transferred to a rheometer where their respective viscosity was measured as a function of temperature between room temperature and 70° C. at a ramping up temperature of 10° C./min. […]

CC(=O)OC(C)(C)C [tert-butyl acetate]
second viscosity of PCL-14 plasticized with non-volatile liquid: less than 10^4 mPa·s

From patent US20250268840A1, “USE OF NANO-CARRIERS FOR DELIVERY OF ACTIVE AGENTS” (LANDA LABS (2012) LTD., priority 2022, published 2025)
